According to article PMC6499541:
Results are given in words; binding and its absence hold for the method and conditions named. Binding seen in cells or lysates may run through a third protein. A result given as binding can be weak or reduced; the word gives no strength. For part of these data: Where a sequence is shown, tags or fusion partners need not be part of it.

By UniProt entry, the sequences of proteins in these tests, tags left out. Where a name states a change or a piece, a line headed by the entry shows the natural chain unless it says otherwise.
UniProt Q3UH93: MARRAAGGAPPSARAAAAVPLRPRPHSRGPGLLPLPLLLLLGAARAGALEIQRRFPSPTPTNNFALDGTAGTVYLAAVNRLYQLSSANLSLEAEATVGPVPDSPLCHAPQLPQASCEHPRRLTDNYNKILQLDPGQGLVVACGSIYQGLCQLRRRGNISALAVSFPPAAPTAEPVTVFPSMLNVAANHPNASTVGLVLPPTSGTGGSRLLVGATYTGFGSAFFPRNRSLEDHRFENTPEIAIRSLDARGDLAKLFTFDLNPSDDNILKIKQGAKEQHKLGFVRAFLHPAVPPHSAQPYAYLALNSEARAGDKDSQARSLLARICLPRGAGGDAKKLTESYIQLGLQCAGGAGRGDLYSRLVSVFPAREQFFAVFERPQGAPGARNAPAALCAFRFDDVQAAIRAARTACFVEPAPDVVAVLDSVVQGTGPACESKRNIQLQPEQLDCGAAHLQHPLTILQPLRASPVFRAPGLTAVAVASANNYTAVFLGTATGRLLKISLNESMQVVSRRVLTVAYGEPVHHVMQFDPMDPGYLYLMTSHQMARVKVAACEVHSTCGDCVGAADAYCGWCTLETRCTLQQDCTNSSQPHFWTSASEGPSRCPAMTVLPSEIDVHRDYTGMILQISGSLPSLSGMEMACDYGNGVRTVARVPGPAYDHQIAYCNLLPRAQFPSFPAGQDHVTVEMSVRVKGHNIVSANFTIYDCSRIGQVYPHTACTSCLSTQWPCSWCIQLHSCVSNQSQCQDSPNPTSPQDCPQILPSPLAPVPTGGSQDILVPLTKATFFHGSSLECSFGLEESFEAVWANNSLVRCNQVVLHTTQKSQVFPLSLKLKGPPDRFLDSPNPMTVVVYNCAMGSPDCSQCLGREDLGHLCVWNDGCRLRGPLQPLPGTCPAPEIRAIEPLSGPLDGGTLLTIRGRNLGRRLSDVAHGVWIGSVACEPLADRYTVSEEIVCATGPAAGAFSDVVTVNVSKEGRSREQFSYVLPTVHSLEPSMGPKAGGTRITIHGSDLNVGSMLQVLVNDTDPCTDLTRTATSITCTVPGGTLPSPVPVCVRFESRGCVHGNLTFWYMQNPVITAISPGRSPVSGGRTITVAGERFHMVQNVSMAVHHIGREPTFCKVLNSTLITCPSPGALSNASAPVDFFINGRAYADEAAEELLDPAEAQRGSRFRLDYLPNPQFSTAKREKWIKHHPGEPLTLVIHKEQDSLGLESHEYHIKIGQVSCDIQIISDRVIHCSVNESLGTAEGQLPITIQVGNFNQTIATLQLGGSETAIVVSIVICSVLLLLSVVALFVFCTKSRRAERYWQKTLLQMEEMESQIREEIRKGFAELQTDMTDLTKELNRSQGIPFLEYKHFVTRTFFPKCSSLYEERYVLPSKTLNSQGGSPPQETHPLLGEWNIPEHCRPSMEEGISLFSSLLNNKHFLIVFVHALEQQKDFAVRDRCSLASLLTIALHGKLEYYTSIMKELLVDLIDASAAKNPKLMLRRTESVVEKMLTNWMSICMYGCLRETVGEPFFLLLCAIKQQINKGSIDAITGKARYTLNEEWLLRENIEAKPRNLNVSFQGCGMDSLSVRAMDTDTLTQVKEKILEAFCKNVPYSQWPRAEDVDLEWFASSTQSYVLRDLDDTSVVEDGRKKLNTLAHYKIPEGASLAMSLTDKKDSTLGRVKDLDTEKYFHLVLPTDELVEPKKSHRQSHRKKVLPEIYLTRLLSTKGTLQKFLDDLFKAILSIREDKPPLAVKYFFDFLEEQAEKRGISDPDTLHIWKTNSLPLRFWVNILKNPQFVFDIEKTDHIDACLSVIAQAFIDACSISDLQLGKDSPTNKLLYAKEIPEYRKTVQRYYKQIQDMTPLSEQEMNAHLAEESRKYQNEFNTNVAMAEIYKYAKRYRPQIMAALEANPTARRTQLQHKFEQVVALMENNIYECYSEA

How the values were obtained:
Test in all cases: co-IP; COS-7 cells co-transfected with V5-tagged mPLXND1 tails and FLAG-tagged mGIPC1 forms; lysis in 50 mM Tris pH 7.5, 5 mM EDTA, 150 mM NaCl, 1% Triton X-100; anti-FLAG immunoprecipitation overnight at 4°C with Protein A/G agarose; V5 co-immunoprecipitates detected by Western blot
[1] = biological target: FLAG-tagged GH1 domain of murine GIPC1 (FLAG-mGIPC1^GH1) (mouse) (UniProt Q9Z0G0)
[2] = biological target: T1, FLAG-tagged PDZ domain of murine GIPC1 (FLAG-mGIPC1^PDZ) (mouse) (UniProt Q9Z0G0)
T1 sequence: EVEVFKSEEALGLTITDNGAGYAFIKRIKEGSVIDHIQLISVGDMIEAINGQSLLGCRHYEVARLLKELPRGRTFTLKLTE

[3] = biological target: FLAG-tagged full murine GIPC1 (FLAG-mGIPC1^WT) (mouse) (UniProt Q9Z0G0)

binding [1]: binds
binding [2]: binds
binding [3]: binds
Substance: V5-tagged cytosolic tail of wild-type murine PLXND1 (V5-C-mPLXND1^WT) (from UniProt Q3UH93) (domain or fragment)
